Experimental data: publication doi:10.1101/2022.06.20.496817
These are yes or no findings as the source states them, for the method shown. Some binding calls cover weakened binding; strength is not graded here.

Target: proteolipid protein (PLP) (mouse (endogenous in forebrain)) (UniProt P60202)
Assay: non-reducing SDS-PAGE and western blot

B1: proteolipid protein (PLP) (protein, UniProt P60202 1-277)
chain: MGLLECCARCLVGAPFASLVATGLCFFGVALFCGCGHEALTGTEKLIETYFSKNYQDYEYLINVIHAFQYVIYGTASFFFLYGALLLAEGFYTTGAVRQIFGDYKTTICGKGLSATVTGGQKGRGSRGQHQAHSLERVCHCLGKWLGHPDKFVGITYALTVVWLLVFACSAVPVYIYFNTWTTCQSIAFPSKTSASIGSLCADARMYGVLPWNAFPGKVCGSNLLSICKTAEFQMTFHLFIAAFVGAAATLVSLLTFMIAATYNFAVLKLMGRGTKF
- binding: binds
